Results taken from US6451972B1, “Peptido-mimetic compounds containing RGD sequence useful as integrin inhibitors” (Sigma-Tau Industrie Farmaceutiche Riunite S.p.A., priority 1998, dated 2002).
Part of at least one peptide drawing is inferred or uncertain, most often the ends.

What was measured:
[1] = test system: HMEC cells adhesion to Vitronectin; test: Adhesion assay on vitronectin, HMEC cells; type: cell-based; conditions: 1.5 μM peptide
Description: (§1) Ninety-six-well plates (Falcon) were coated with either fibronectin or vitronectin (both at […] in phosphate buffered saline) overnight at 4° C. Cells were detached using EDTA (1 mM)/trypsine (0.25%) and resuspended in own medium described above. Approximately 40,000 cells/[…] were applied for each well and allowed to adhere for 60 min at 37° C. in presence of different amounts of RGD peptides. For all experiments the non-adherent cells were removed with PBS and the remaining cells were fixed with 4% paraformaldehyde for 10 min.
(§2) Cells were stained with 1% toluidine blue for 10 min and rinsed with water.
(§3) Stained cells were solubilized with 1% SDS and quantified on a microtiter plate reader at 600 nm.
Experiments described were performed in quadruplicate and repeated a minimum of three times.
To asses the ability of ST1646 peptide to compete with vitronectin in adhesion assay also on other cells type, we performed this experiment using microvascular endothelial cells (HMEC), human prostate carcinoma cells (PC3) and murine lung carcinoma cells (M109). Table 6 (a, b and c) show a good activity of the ST1646 peptide in inhibiting adhesion of all cells type. […]
(§4) The percentages of adhesion inhibition refer to 1.5 μM concentration of each peptide and were calculated by the following formula (control-sample/control×100) where control was RGD untreated sample.

[2] = test system: angiogenesis on chicken embryo chorioallantoic membrane (spontaneous); test: CAM assay, angiogenesis occurring spontaneously; type: in vivo
[3] = test system: angiogenesis on chicken embryo chorioallantoic membrane stimulated by bFGF; test: CAM assay, angiogenesis stimulated by bFGF; type: in vivo; conditions: bFGF (400 ng/embryo) stimulated
[4] = test system: bovine microvascular endothelial cells (BMEC) adhesion to Vitronectin; test: Adhesion inhibition of BMEC to vitronectin; type: cell-based
Description: (§5) Bovine microvascular endothelial cells (BMEC) were maintained in DMEM supplemented with 20% foetal calf serum, 50 units/ml heparin, 50 μg/ml bovine brain extract, 100 units/ml gentamycin.
(§6) BMEC were cultured on 1% gelatine-coated culture flasks and employed in experiments between passage 6-12.
as §1, §2, §3
(§7) Experiments described were performed in quadruplicate and repeated a minimum of three times. […]
(§8) The percentages of adhesion inhibition refer to 100 µM concentration of each peptide of and it's calculated by the following formula (control-sample/control×100) where control was RGD untreated sample. […] The t-test has been calculated, using the Mann Witney non parametric test, by the instat program. […]

[5] = test system: murine lung carcinoma cells (M109) adhesion to Vitronectin; test: Adhesion assay on vitronectin, M109 cells; type: cell-based; conditions: 1.5 μM peptide
Description: Murine lung carcinoma cells (M109) were purchased from American Type Collection Culture (ATCC) and maintained in RPMI supplemented with 10% foetal calf serum, 10 mM L-glutamine and 100 units/ ml gentamicin.
as §1, §2, §3, §7, §4
The t-test has been calculated using the Mann Witney non parametric test, by the instat program. […]

[6] = test system: human prostate carcinoma cells (PC3) adhesion to Vitronectin; test: Adhesion assay on vitronectin, PC3 cells; type: cell-based; conditions: 1.5 μM peptide
Description: Human prostate carcinoma cells (PC3) were purchased from American Type Collection Culture (ATCC) and maintained in RPMI supplemented with 10% foetal calf serum, 10 mM L-glutamine, 1% sodium piruvate and 100 units/ml gentamicin.
as §1, §2, §3, §7, §4

Integrin αvβ3 Receptor = Integrin αvβ3 Receptor (Homo sapiens, UniProt P05106+P06756); test: Competition binding of [125I]-echistatin to integrin αvβ3 (solid-phase receptor binding assay)
[7] = test system: bovine microvascular endothelial cells (BMEC) adhesion to Fibronectin; test: Adhesion inhibition of BMEC to fibronectin; type: cell-based
Description: as §5, §6, §1, §2, §3, §7
as §8, with “μM” for “µM”

M109 lung carcinoma = test: Antitumor and antimetastatic activity on M109 lung carcinoma-bearing Balb/c mice; type: in vivo; conditions: 300 μg/mouse (15 mg/kg) i.p. qdx9
Description: Balb/c mice were injected i.m. with M109 lung carcinoma cells (3×10^5 cells/mouse) into the hind leg muscle.
Tumors were excised at day 10th after tumor implant. Mice were sacrificed at day 16th from tumor implant and lungs were removed. The number of lung metastases has been evaluated on tumor-excised mice (3 mice/group) using a dissecting microscope.
TVI % (tumor volume inhibition)=100−[(mean tumor weight of treated group/mean tumor weight of control group)×100]. Calculated on day 16th after tumor implant (just before mice sacrifice) on nonoperated mice.

For N=C(N)NCCC[C@@H]1NC(=O)[C@@H]2CC[C@H]3CCC[C@@H](NC(=O)[C@H](CC(=O)O)NC(=O)CNC1=O)C(=O)N32 [ST 1646], the “% Inhibition” value [1] was 58%, the “Inhibition (%)” value ([2]; 20 μg repeated treatment (every day for three days)) was −27% and the “Inhibition (%)” value ([2]; 100 μg single treatment, vessel count versus control) was −70%. For the same compound, the “Inhibition (%)” value ([3]; 100 μg repeated treatment (every day for three days)) was −84%, the “Inhibition (%)” value ([3]; 100 μg single treatment) was −56% and the “% Inhibition” value ([4]; BMEC on vitronectin, 100 µM concentration of each peptide, mean of 4 samples) was 99%. For the same compound, the “effectiveness in inhibiting adhesion of BMEC relative to the Kessler peptide, vitronectin” value ([4]; see Table 5) was “about 10 time”, the “% Inhibition” value [5] was 99% and the “% Inhibition” value [6] was 96%. The Ki (Integrin αvβ3 Receptor; calculated from the IC50 by the Cheng and Prusoff equation, [125I]echistatin competition, mean ± SD of triplicate) was 2.03 ± 0.29 nM, the IC50 (Integrin αvβ3 Receptor; inhibition of [125I]echistatin (0.05 nM) binding to coated αvβ3, mean ± SD of triplicate) was 2.2 ± 0.32 nM and the “affinity for αvβ3 relative to the Kessler cyclic peptide” value (Integrin αvβ3 Receptor; ratio of IC50 of table 2) was about 20 time. For the same compound, the “% Inhibition” value ([7]; BMEC on fibronectin, 100 μM concentration of each peptide, mean of 4 samples) was 60%, the “effectiveness in inhibiting adhesion of BMEC relative to the Kessler peptide, fibronectin” value ([7]; see Table 5) was “about 10 time” and the “TVI % (tumor volume inhibition)” value (M109 lung carcinoma; day 16 after tumor implant, nonoperated mice) was 3%. The “Mean no. of metastases” value (M109 lung carcinoma; lung metastases at day 16, untreated group 34) was 20.
